Source: PMC7578830

Sequences of proteins named here, by UniProt entry; tags and fusion partners are left off.
UniProt O61735: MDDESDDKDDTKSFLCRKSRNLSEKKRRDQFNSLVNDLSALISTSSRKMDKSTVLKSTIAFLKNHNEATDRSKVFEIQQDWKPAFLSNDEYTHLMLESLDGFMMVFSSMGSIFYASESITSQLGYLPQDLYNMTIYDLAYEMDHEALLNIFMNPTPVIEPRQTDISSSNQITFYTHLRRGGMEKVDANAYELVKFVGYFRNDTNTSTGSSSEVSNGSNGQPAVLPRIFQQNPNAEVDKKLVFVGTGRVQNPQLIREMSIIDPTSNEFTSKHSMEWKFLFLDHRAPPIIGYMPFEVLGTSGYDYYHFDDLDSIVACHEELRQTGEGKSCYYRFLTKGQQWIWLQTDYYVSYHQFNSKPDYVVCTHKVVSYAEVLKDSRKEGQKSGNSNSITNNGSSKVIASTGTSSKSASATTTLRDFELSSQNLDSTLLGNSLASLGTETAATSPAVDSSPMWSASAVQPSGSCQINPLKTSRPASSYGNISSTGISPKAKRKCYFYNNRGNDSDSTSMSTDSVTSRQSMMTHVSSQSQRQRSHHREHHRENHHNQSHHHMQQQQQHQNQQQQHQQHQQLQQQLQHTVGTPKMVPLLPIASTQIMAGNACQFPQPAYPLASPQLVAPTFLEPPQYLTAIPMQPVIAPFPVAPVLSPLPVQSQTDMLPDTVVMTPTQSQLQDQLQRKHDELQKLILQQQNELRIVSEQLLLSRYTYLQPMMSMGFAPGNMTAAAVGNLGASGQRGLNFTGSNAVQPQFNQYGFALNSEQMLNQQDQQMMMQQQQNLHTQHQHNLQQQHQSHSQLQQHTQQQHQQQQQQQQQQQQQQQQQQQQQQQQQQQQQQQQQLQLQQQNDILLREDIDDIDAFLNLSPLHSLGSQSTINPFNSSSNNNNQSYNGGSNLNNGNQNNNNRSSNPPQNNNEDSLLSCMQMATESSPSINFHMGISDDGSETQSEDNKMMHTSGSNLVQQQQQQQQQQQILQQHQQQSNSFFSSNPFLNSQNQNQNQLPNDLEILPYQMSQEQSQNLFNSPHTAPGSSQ
UniProt Q27889: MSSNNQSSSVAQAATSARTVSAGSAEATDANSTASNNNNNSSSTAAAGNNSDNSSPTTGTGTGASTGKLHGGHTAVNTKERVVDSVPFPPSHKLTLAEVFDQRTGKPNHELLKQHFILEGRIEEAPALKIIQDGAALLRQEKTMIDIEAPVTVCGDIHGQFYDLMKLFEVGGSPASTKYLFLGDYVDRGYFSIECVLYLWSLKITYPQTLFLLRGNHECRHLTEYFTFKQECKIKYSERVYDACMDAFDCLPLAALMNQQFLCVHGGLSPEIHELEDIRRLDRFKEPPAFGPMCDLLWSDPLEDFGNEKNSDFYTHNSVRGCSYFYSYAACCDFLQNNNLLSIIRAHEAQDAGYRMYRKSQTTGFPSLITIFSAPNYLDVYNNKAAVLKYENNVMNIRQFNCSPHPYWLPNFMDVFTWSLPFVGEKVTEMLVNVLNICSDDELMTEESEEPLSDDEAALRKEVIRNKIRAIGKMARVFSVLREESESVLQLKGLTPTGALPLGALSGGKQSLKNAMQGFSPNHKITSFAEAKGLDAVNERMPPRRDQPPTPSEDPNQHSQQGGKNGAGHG
UniProt P48461: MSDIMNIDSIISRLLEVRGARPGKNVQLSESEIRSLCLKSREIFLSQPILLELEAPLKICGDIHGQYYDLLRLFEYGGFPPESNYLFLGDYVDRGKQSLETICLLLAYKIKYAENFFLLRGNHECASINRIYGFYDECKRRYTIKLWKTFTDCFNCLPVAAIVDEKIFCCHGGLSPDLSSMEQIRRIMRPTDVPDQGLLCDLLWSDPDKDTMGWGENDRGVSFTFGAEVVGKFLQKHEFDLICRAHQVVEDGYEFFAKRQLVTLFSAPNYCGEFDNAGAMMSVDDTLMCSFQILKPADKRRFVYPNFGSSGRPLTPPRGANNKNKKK
UniProt P18431: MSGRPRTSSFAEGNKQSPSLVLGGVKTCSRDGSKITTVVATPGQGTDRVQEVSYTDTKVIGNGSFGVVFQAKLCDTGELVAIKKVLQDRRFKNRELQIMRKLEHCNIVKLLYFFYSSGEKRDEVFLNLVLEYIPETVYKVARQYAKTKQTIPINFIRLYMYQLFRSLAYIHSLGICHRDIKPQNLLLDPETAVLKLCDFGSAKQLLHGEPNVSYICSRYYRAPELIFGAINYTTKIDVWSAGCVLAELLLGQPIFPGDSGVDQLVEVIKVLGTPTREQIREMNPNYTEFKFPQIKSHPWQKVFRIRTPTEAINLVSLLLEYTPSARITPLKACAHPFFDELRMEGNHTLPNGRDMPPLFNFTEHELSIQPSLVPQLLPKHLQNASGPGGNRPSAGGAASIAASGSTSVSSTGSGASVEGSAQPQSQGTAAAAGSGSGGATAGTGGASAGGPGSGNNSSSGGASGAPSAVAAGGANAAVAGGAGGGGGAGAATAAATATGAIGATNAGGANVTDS
UniProt O76324: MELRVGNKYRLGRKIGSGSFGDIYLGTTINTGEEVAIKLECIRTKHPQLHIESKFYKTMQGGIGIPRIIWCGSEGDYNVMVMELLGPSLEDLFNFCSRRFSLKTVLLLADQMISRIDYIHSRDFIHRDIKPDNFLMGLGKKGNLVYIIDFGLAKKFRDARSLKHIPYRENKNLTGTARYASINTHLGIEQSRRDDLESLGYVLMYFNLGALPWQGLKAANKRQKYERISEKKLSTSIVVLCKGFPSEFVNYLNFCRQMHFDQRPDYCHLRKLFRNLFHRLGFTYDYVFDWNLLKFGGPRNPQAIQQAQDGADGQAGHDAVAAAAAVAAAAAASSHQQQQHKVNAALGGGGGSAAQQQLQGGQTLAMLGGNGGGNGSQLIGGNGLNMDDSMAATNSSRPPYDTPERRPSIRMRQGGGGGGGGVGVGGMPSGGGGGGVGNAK
UniProt Q24368: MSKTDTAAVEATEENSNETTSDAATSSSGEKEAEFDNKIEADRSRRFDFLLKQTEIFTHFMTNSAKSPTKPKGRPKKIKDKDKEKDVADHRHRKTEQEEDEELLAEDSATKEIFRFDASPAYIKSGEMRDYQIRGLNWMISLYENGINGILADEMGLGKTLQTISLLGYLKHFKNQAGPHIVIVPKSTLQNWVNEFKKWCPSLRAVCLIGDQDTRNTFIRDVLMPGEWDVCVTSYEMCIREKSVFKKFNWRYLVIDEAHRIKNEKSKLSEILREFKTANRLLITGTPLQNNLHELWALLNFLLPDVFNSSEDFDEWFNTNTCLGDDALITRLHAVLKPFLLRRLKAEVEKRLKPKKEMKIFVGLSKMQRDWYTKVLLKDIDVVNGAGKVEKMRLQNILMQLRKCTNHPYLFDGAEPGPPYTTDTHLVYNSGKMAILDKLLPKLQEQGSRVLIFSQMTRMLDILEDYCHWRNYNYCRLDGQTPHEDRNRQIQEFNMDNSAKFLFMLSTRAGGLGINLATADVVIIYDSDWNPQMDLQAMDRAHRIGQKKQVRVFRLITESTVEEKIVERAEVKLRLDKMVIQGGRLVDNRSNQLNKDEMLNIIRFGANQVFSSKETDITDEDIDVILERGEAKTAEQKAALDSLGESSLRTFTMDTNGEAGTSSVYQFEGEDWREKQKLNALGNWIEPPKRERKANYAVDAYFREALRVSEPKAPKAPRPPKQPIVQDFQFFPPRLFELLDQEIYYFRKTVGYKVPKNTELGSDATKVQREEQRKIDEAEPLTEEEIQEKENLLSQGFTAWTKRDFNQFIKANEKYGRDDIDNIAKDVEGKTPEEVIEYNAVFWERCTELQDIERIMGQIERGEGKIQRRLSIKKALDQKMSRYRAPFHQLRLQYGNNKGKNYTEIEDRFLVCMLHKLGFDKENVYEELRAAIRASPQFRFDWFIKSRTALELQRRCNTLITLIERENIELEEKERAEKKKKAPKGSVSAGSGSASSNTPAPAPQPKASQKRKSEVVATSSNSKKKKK
UniProt O77059: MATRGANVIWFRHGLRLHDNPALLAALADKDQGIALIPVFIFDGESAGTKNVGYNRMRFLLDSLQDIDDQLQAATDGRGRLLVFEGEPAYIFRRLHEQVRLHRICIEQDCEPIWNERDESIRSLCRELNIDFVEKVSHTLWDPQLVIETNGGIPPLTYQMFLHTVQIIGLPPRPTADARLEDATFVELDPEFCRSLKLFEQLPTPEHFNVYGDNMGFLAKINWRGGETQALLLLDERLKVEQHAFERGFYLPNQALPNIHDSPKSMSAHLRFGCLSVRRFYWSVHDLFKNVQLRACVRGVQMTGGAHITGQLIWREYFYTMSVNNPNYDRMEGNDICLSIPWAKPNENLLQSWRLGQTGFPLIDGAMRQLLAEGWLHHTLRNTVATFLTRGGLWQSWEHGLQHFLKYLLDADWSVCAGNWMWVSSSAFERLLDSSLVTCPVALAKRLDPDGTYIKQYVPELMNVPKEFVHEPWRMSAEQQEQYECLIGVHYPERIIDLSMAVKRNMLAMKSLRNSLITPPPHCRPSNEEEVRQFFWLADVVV

What was measured:
[1] = target: T1, FLAG-tagged CYC (Drosophila melanogaster) (UniProt O61734); test: affinity purification with mass spectrometry; FLAG-CYC immunoprecipitated from heads of w; FLAG-cyc; cyc^01 flies collected at ZT24, LC/MS/MS
T1 sequence: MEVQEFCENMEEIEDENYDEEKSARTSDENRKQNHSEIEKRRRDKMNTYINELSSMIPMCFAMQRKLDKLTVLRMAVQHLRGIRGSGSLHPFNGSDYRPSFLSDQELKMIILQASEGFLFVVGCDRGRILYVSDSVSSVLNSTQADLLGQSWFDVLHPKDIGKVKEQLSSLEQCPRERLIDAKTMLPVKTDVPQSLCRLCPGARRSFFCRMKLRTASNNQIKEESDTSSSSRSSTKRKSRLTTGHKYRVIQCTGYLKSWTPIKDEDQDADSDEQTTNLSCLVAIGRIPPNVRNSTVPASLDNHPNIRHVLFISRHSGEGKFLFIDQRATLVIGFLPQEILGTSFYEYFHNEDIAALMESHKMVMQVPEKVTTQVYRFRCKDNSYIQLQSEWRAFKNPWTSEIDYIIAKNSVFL

[2] = target: GFP tagged CLOCK (CLK) protein (Drosophila melanogaster) (UniProt O61735); test: affinity purification with mass spectrometry; GFP-CLK (or the GFP control) captured from fly head extracts on GFP nanobody beads (ChromoTek) overnight at 4 °C, washed three times with cold EB3 buffer; flies entrained in LD and collected at ZT0 (ZT24), ZT6, ZT9, ZT12, ZT16 and ZT20; LC/MS/MS once for each time point
[3] = target: GFP tagged CLOCK (CLK) protein (Drosophila melanogaster) (UniProt O61735); test: as above; remark: listed apart in the source

binding [1]: binds
Molecule: NIPPED-A (from UniProt Q8I8U7 1-3790)

binding [2]: binds
Molecule: PP2B-14D (from UniProt Q27889 1-570) (enzyme)

binding [2]: binds
Molecule: PP1alpha-96A (from UniProt P48461 1-327) (enzyme)

binding [2]: no binding
Molecule: SHAGGY (SGG) kinase (from UniProt P18431 1-514) (enzyme)

binding [1]: binds
Molecule: CLOCK (from UniProt O61735 1-1027)

binding [2]: binds
Molecule: DBT kinase (from UniProt O76324 1-440) (enzyme)

binding [2]: binds
Molecule: ISWI (from UniProt Q24368 1-1027)

binding [2]: no binding
Molecule: CRYPTOCHROME (from UniProt O77059 1-542)

binding [1]: binds
binding [2]: binds
Molecule: PERIOD (from UniProt P07663 1-1218)

B1: TIMELESS (protein, UniProt P49021 1-1398)
chain: MDWLLATPQLYSAFSSLGCLEGDTYVVNPNALAILEEINYKLTYEDQTLRTFRRAIGFGQNVRSDLIPLLENAKDDAVLESVIRILVNLTVPVECLFSVDVMYRTDVGRHTIFELNKLLYTSKEAFTEARSTKSVVEYMKHILESDPKLSPHKCDQINNCLLLLRNILHIPETHAHCVMPMMQSMPHGISMQNTILWNLFIQSIDKLLLYLMTCPQRAFWGVTMVQLIALIYKDQHVSTLQKLLSLWFEASLSESSEDNESNTSPPKQGSGDSSPMLTSDPTSDSSDNGSNGRGMGGGMREGTAATLQEVSRKGQEYQNAMARVPADKPDGSEEASDMTGNDSEQPGSPEQSQPAGESMDDGDYEDQRHRQLNEHGEEDEDEDEVEEEEYLQLGPASEPLNLTQQPADKVNNTTNPTSSAPQGCLGNEPFKPPPPLPVRASTSAHAQMQKFNESSYASHVSAVKLGQKSPHAGQLQLTKGKCCPQKRECPSSQSELSDCGYGTQVENQESISTSSNDDDGPQGKPQHQKPPCNTKPRNKPRTIMSPMDKKELRRKKLVKRSKSSLINMKGLVQHTPTDDDISNLLKEFTVDFLLKGYSYLVEELHMQLLSNAKVPIDTSHFFWLVTYFLKFAAQLELDMEHIDTILTYDVLSYLTYEGVSLCEQLELNARQEGSDLKPYLRRMHLVVTAIREFLQAIDTYNKVTHLNEDDKAHLRQLQLQISEMSDLRCLFVLLLRRFNPSIHSKQYLQDLVVTNHILLLILDSSAKLGGCQTIRLSEHITQFATLEVMHYYGILLEDFNNNGEFVNDCIFTMMHHIGGDLGQIGVLFQPIILKTYSRIWEADYELCDDWSDLIEYVIHKFMNTPPKSPLTIPTTSLTEMTKEHNQEHTVCSWSQEEMDTLYWYYVQSKKNNDIVGKIVKLFSNNGNKLKTRISIIQQLLQQDIITLLEYDDLMKFEDAEYQRTLLTTPTSATTESGIEIKECAYGKPSDDVQILLDLIIKENKAQHLLWLQRILIECCFVKLTLRSGLKVPEGDHIMEPVAYHCICKQKSIPVVQWNNEQSTTMLYQPFVLLLHKLGIQLPADAGSIFARIPDYWTPETMYGLAKKLGPLDKLNLKFDASELEDATASSPSRYHHTGPRNSLSSVSSLDVDLGDTEELALIPEVDAAVEKAHAMASTPSPSEIFAVPKTKHCNSIIRYTPDPTPPVPNWLQLVMRSKCNHRTGPSGDPSDCIGSSSTTVDDEGFGKSISAATSQAASTSMSTVNPTTTLSLNMLNTFMGSHNENSSSSGCGGTVSSLSMVALMSTGAAGGGGNTSGLEMDVDASMKSSFERLEVNGSHFSRANNLDQEYSAMVASVYEKEKELNSDNVSLASDLTRMYVSDEDDRLERTEIRVPHYH
binding [3]: binds
binding [1]: binds

binding [3]: binds
B2: UCH (enzyme, UniProt P35122 1-227)
chain: MLTWTPLESNPEVLTKYIHKLGVSPAWSVTDVIGLEDDTLEWIPRPVKAFILLFPCSETYEKHRAEEHDRIKEVEEQHPEDLFYMRQFTHNACGTVALIHSVANNKEVDIDRGVLKDFLEKTASLSPEERGRALEKDEKFTADHEALAQEGQTNAANHEKVIHHFIALVNKEGTLYELDGRKSFPIKHGPTSEETFVKDAAKVCKEFMARDPNEVRFTVLALTAAQQ

binding [3]: binds
B3: CYCLE (protein, UniProt O61734 1-413)
chain: T1 sequence

binding [3]: binds
B4: protein phosphatase PRL-1 (enzyme, UniProt O61722 1-176)
chain: MSITMRQKDLRPAPALIEYKGMKFLITDRPSDITINHYIMELKKNNVNTVVRVCEPSYNTDELETQGITVKDLAFEDGTFPPQQVVDEWFEVLKDKYQQNPEACVAVHCVAGLGRAPVLVALALIELGLKYEAAVEMIRDKRRGAINAKQLSFLEKYKPKARLKHKNGHKNSCSVQ

binding [3]: binds
B5: UBC6 (enzyme, UniProt P25153 1-151)
chain: MSTPARRRLMRDFKRLQEDPPTGVSGAPTDNNIMIWNAVIFGPHDTPFEDGTFKLTIEFTEEYPNKPPTVRFVSKVFHPNVYADGGICLDILQNRWSPTYDVSAILTSIQSLLSDPNPNSPANSTAAQLYKENRREYEKRVKACVEQSFID

binding [3]: binds
B6: PPD3 (enzyme, UniProt Q9VH81 1-520)
chain: MSSSELEVQKAADCQQEAKVPASVEITGSKQPEEDTNARTKAELDFAAAEQYKNQGNEMLKTKEFSKAIDMYTKAIELHPNSAIYYANRSLAHLRQESFGFALQDGVSAVKADPAYLKGYYRRAAAHMSLGKFKQALCDFEFVAKCRPNDKDAKLKFTECNKIVKMRAFERAIAVDKPEKTLSEMYSDMENITIEDDYKGPQLEDGKVTLKFMKELMEHYKAQKRLHRKFAYKILCEIDTYMRAQPSLVDITVPDEEKFTICGDIHGQFYDLMNIFEINGLPSEKNPYLFNGDFVDRGSFSVECIFTLFGFKLLYPNHFFLARGNHESINMNQMYGFTGEVTAKYTSAMADIFTQVFNWLPLCHCINQKILVMHGGLFSTEDVTLDHIRRIERNCQPPEEGLMCELLWSDPQQWMGLGQSKRGVGIQFGPDVTEKFCKDNNLDYIIRSHEVKDMGYEVAHNGKCITVFSAPNYCDTMGNMGAFITITGNNLKPNYKSFEAVPHPDVKPMAYANSLMNWLA

Read-outs that look alike come from different tables or passages of the source. Results are given in words; binding and its absence hold for the method and conditions named. Binding seen in cells or lysates may run through a third protein. Here binding means that the protein was enriched with, or labelled near, the bait; the list need not be complete. For some assays here: No binding means not detected with the bait. For some assays here: Sequences can lack the tags named with a protein. Each block holds one molecule with its values, some of them ahead of it.
